This is an account of results in paper PMC5370183, “Kinetics of the LOV domain of ZEITLUPE determine its circadian function in Arabidopsis” (eLife, 2017).

Chains of the proteins cited; added tags and fusions are not shown.
UniProt Q9FHW7: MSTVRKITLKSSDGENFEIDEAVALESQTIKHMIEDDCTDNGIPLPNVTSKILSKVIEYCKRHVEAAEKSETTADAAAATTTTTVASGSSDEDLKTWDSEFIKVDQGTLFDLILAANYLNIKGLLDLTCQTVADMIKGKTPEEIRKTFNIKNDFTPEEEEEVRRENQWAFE
UniProt Q94BT6: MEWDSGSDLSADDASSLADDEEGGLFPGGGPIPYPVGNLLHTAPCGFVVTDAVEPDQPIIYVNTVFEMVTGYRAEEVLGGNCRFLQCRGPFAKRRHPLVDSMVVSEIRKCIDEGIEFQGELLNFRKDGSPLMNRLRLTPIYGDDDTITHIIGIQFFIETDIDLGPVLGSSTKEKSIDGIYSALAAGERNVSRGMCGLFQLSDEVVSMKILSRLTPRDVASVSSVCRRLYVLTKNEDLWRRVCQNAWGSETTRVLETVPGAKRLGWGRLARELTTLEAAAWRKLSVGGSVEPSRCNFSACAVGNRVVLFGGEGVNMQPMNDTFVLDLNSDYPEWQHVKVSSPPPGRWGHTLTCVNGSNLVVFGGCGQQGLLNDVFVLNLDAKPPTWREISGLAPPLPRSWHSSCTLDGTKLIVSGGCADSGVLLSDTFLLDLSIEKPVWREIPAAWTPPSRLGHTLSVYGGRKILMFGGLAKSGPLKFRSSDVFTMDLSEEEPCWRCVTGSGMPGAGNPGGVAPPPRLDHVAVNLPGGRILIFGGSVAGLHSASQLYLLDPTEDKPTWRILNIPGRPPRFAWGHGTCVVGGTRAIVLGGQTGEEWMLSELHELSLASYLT

No constants are given. Whether binding was seen depends on the method and setting. In cells and extracts the contact can be indirect. Some results given as binding are weak or reduced against the parent protein; the word gives no strength. For some assays here: Where a sequence is shown, tags or fusion partners need not be part of it.

For experiment [1], the target named is ARABIDOPSIS SKP1-LIKE 2 (ASK2) (Arabidopsis thaliana) (UniProt Q9FHW7). In words: co-IP; transient co-expression in N. benthamiana, light or darkness; precipitated with anti-FLAG, ZTL variants detected with anti-HA antibody.
In experiment [2] the target is T1, GI-GFP (GIGANTEA) (Arabidopsis thaliana) (UniProt Q9SQI2).
T1 sequence: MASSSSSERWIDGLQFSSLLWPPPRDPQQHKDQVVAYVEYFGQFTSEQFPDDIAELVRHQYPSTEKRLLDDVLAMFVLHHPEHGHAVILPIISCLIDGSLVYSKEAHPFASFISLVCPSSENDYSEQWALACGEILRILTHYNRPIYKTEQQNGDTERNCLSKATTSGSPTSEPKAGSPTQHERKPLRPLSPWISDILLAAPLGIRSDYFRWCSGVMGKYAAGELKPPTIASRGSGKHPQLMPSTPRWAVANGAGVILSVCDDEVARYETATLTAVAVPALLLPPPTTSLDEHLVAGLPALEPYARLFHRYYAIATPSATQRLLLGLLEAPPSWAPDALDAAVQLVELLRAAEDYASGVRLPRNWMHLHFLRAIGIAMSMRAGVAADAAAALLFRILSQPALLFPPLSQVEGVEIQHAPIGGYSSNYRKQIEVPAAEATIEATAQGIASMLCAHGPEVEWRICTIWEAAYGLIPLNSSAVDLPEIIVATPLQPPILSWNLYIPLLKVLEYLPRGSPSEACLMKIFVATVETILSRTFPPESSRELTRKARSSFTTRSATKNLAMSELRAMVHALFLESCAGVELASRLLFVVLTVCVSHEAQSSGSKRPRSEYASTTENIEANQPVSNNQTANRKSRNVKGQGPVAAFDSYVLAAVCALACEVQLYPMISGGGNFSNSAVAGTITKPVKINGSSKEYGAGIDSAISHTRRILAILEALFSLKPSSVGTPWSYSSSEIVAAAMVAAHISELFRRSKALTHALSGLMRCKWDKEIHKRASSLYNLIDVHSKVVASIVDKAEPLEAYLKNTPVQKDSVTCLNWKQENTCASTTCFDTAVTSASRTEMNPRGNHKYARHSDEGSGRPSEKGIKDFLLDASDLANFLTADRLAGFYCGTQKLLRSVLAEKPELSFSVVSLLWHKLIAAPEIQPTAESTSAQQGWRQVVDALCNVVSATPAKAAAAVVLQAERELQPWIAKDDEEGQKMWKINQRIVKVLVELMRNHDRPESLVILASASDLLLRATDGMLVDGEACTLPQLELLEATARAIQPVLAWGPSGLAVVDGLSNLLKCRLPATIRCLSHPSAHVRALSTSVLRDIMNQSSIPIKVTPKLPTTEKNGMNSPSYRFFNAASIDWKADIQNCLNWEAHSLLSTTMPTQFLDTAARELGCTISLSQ
The experiment in a line: co-IP; transient co-expression in N. benthamiana, continuous light or dark for 24 hr; GI-GFP precipitated with GFP antibody, ZTL variants detected with HA antibody.

“HA-ZTL (ZEITLUPE, wild type) (from UniProt Q94BT6 1-609)”: the binding entry in experiment [1] and in experiment [2] was “binds” throughout.
